Record: PubChem BioAssay AID504793 (Drosophila RNAi Screening Center, 2011)

Aim: 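Whole-genome screen for parts of the DNA damage checkpoint at G2/M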 (primary screen)
Cells: Drosophila S2R+ cells
Reagent: long dsRNA against Drosophila genes, about 0.25 µg dsRNA per well
Time to read-out: 4 days of dsRNA, then 4 hours of drug before read-out
Treatment: doxorubicin 0.5 µM for 4 hours to cause double-strand breaks, in cells also given a low, harmless dose of dsRNA against nbs to sensitise the assay
Measured: 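Per-well count of mitotic cells stained for phospho-histone H3 after doxorubicin exposure, used as mitotic index; counts are raw and not normalised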
Scale: mitotic cells: higher = more cells in mitosis, weaker G2 arrest
Call rule: 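Genes are called active only when high mitotic counts were reproduced with independent dsRNAs and mitosis was checked for delay without damage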
Meaning of the calls: active = confirmed in follow-up tests; inactive = not confirmed
In all, the deposit lists about 23,000 reagents; below is an unselected part of those that have a named target and a result. In the full data, 62 (0.27%) were called active. 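Calls come from follow-up tests whose scores are not deposited, so confirmed genes may have low counts here; counts are not normalised per plate.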 Raw values vary from plate to plate and are shown uncorrected. A number with no mark means an inactive call. A plus sign joins genes that one reagent is predicted to hit. Reagent sequences are not shown.

| gene | amplicon | mitotic cells, replicate 1 | mitotic cells, replicate 2 |
| --- | --- | --- | --- |
| Fak (Focal adhesion kinase) | DRSC07426 | 4 | – |
| Fak (Focal adhesion kinase) | DRSC26626 | 4 | – |
| vvl (ventral veins lacking) | DRSC11409 | 5 | – |
| vvl (ventral veins lacking) | DRSC26681 | 7 | – |
| CG7772 | DRSC20056 | 3 | – |
| gd (gastrulation-defective) | DRSC20336 | 4 | – |
| CG1227 | DRSC12534 | 10 | – |
| CG1227 | DRSC25952 | 5 | – |
| CG13437 | DRSC06397 | 8 | – |
| LManV (Lysosomal alpha-mannosidase V) | DRSC03223 | 1 | – |
| LManV (Lysosomal alpha-mannosidase V) | DRSC24176 | 9 | – |
| Inx7 (Innexin 7) | DRSC18784 | 13 | – |
| Inx7 (Innexin 7) | DRSC24113 | 8 | – |
| GstE2 (Glutathione S transferase E2) | DRSC06672 | 8 | – |
| GstE2 (Glutathione S transferase E2) | DRSC29733 | 9 | – |
| CG4709 | DRSC02772 | 6 | – |
| alpha4GT2 (alpha1,4-galactosyltransferase 2) | DRSC15905 | 20 | – |
| nSMase (neutral sphingomyelinase) | DRSC08237 | 9 | – |
| CG17440 | DRSC18126 | 16 | – |
| CG14546 | DRSC14890 | 6 | – |
| TM9SF4 (Transmembrane 9 superfamily protein member 4) | DRSC01888 | 6 | – |
| TM9SF4 (Transmembrane 9 superfamily protein member 4) | DRSC02537 | 5 | – |
| CG14237 | DRSC23239 | 16 | – |
| CG14937 | DRSC02419 | 8 | – |
| Cmtr1 (Cap methyltransferase 1) | DRSC18400 | 10 | – |
| Cmtr1 (Cap methyltransferase 1) | DRSC27812 | 9 | – |
| Muc55B (Mucin 55B) | DRSC21440 | 8 | – |
| Muc55B (Mucin 55B) | DRSC27913 | 11 | – |
| FoxP (Forkhead box P) | DRSC15159 | 4 | – |
| FoxP (Forkhead box P) | DRSC21961 | 8 | – |
| FoxP (Forkhead box P) | DRSC29407 | 6 | – |
| Tsp97E (Tetraspanin 97E) | DRSC16019 | 7 | – |
| Tsp97E (Tetraspanin 97E) | DRSC28053 | 3 | – |
| CG12746 | DRSC12218 | 5 | – |
| CG15306 | DRSC17993 | 11 | – |
| CG15306 | DRSC18240 | 5 | – |
| CG15306 | DRSC29972 | 5 | – |
| CG17032 | DRSC10241 | 7 | – |
| CG12581 | DRSC12206 | 5 | – |
| CG12581 | DRSC12207 | 2 | – |
| CG9205 | DRSC08642 | 8 | – |
| Sap47 (Synapse-associated protein 47kD) | DRSC16850 | 6 | – |
| Sap47 (Synapse-associated protein 47kD) | DRSC27162 | 7 | – |
| CG14545 | DRSC14889 | 5 | – |
| CG14545 | DRSC27728 | 5 | – |
| CG2540 | DRSC19856 | 12 | – |
| Syx6 (Syntaxin 6) | DRSC07032 | 5 | – |
| Syx6 (Syntaxin 6) | DRSC25244 | 12 | – |
| CG4631 | DRSC02766 | 14 | – |
| CG4631 | DRSC22194 | 11 | – |
| CG9917 | DRSC20218 | 6 | – |
| Cpr50Cb (Cuticular protein 50Cb) | DRSC06975 | 8 | – |
| Cpr50Cb (Cuticular protein 50Cb) | DRSC25171 | 5 | – |
| beat-IIIb (beaten path IIIb) | DRSC02435 | 7 | – |
| Polr1A (RNA polymerase I subunit A) | DRSC07535 | 9 | – |
| Dim1 | DRSC00563 | 6 | – |
| soti (scotti) | DRSC16432 | 8 | – |
| soti (scotti) | DRSC28682 | 2 | – |
| CG3847 | DRSC17444 | 17 | – |
| CG3847 | DRSC18327 | 27 | – |
| CG3847 | DRSC26193 | 12 | – |
| sinah (sina homologue) | DRSC09910 | 5 | – |
| sinah (sina homologue) | DRSC22181 | 11 | – |
| Reps (RALBP1 associated Eps domain containing) | DRSC02940 | 2 | – |
| mrn (marionette) | DRSC10913 | 7 | – |
| CG30403 | DRSC03889 | 10 | 8 |
| DZIP1 | DRSC14620 | 8 | – |
| CG10301 | DRSC14226 | 11 | – |
| Cpr67B (Cuticular protein 67B) | DRSC10373 | 9 | – |
| CG17325 + CG42305 | DRSC02602 | 8 | – |
| LSm1 (Like Sm 1) | DRSC04458 | 9 | – |
| CG31265 | DRSC15745 | 5 | – |
| CG31265 | DRSC28592 | 6 | – |
| Cpr65Ax2 + Cpr65Ax1 | DRSC10341 | 6 | – |
| Cpr65Ax2 + Cpr65Ax1 | DRSC10344 | 4 | – |
| TTLL15 (Tubulin tyrosine ligase-like 15) | DRSC15543 | 5 | – |

A few values from the list:
Entry of CG15306 [DRSC17993] under “mitotic cells, replicate 1”: 11
CG15306 [DRSC29972], mitotic cells, replicate 1 → 5
vvl (ventral veins lacking) [DRSC11409], mitotic cells, replicate 1: 5
mrn (marionette) [DRSC10913], mitotic cells, replicate 1 = 7
Entry for CG17325 + CG42305 [DRSC02602] under “mitotic cells, replicate 1”: 8
Under “mitotic cells, replicate 1”, CG3847 [DRSC18327] shows 27

Additional results:
| gene | amplicon | mitotic cells, replicate 1 | mitotic cells, replicate 2 |
| --- | --- | --- | --- |
| wntD (wnt inhibitor of Dorsal) | DRSC16423 | 8 | – |
| wntD (wnt inhibitor of Dorsal) | DRSC28538 | 7 | – |
| CG8136 | DRSC16385 | 5 | – |
| CG8136 | DRSC28135 | 4 | – |
| Gr93b (Gustatory receptor 93b) | DRSC22063 | 8 | – |
| Ssdp (Sequence-specific single-stranded DNA-binding protein) | DRSC16211 | 5 | – |
| Ssdp (Sequence-specific single-stranded DNA-binding protein) | DRSC27526 | 10 | – |
| CG33144 | DRSC07024 | 6 | – |
| CG33144 | DRSC25033 | 12 | – |
| Prosalpha2 (Proteasome alpha2 subunit) | DRSC16798 | 133 | – |
| Prosalpha2 (Proteasome alpha2 subunit) | DRSC28078 | 50 | – |
| Muc18B (Mucin 18B) | DRSC21644 | 9 | – |
| Muc18B (Mucin 18B) | DRSC28889 | 1 | – |
| CG15877 | DRSC08485 | 9 | – |
| Sirt2 (Sirtuin 2) | DRSC15714 | 10 | – |
| Sirt2 (Sirtuin 2) | DRSC26964 | 3 | – |
| CG18635 | DRSC06780 | 8 | – |
| CG18635 | DRSC25971 | 12 | – |
| wun2 (wunen-2) | DRSC07566 | 4 | – |
| CG14306 (retired record) | DRSC14785 | 12 | – |
| mr (morula) | DRSC04332 | 13 | – |
| mr (morula) | DRSC22856 | 20 | – |
| mr (morula) | DRSC29384 | 56 | – |
| RhoGAPp190 (Rho GTPase activating protein p190) | DRSC20097 | 10 | – |
| RhoGAPp190 (Rho GTPase activating protein p190) | DRSC20099 | 10 | – |
| Eig71Ed (Ecdysone-induced gene 71Ed) | DRSC11151 | 4 | – |
| beat-Ib (beaten path Ib) | DRSC03490 | 2 | – |
| hpRNA:CR32207 (hairpin RNA:CR32207) | DRSC09616 | 4 | – |
| Or7a (Odorant receptor 7a) | DRSC18691 | 13 | – |
| Cpr11B (Cuticular protein 11B) | DRSC19859 | 8 | – |
| nbs | DRSC11373 | 5 | – |
| nbs | DRSC23793 | 9 | – |
| ptc (patched) | DRSC05117 | 6 | – |
| ptc (patched) | DRSC07669 | 6 | – |
| disco (disconnected) | DRSC20323 | 12 | – |
| disco (disconnected) | DRSC25113 | 7 | – |
| wwk (white walker) | DRSC01941 | 3 | – |
| CG12362 | DRSC09884 | 2 | – |
| bwa (brain washing) | DRSC01749 | 9 | – |
| bwa (brain washing) | DRSC02310 | 4 | – |
| CG14356 | DRSC14819 | 5 | – |
| CG14053 | DRSC17908 | 4 | – |
| CG9514 | DRSC20190 | 15 | – |
| CG9514 | DRSC20191 | 6 | – |
| CG9514 | DRSC30059 | 9 | – |
| CG15117 | DRSC06539 | 14 | – |
| CG15117 | DRSC25471 | 11 | – |
| Gle1 (Gle1 RNA export mediator) | DRSC06485 | 6 | – |
| Gle1 (Gle1 RNA export mediator) | DRSC29960 | 7 | – |
| GstD3 (Glutathione S transferase D3) | DRSC15571 | 4 | – |
| GstD3 (Glutathione S transferase D3) | DRSC24755 | 4 | – |
| Cpr47Ee (Cuticular protein 47Ee) | DRSC23164 | 16 | – |
| ckd (cracked) | DRSC08418 | 1 | – |
| EndoU (Endoribonuclease U-specific) | DRSC15472 | 15 | – |
| HisRS (Histidyl-tRNA synthetase) | DRSC19986 | 10 | – |
| CG14634 | DRSC17944 | 22 | – |
| ed (echinoid) | DRSC00350 | 4 | – |
| ed (echinoid) | DRSC00438 | 4 | – |
| ed (echinoid) | DRSC00439 | 4 | – |
| ed (echinoid) | DRSC00478 | 2 | – |
| Cpr72Ec (Cuticular protein 72Ec) | DRSC10449 | 9 | – |
| RpS14a (Ribosomal protein S14a) | DRSC18710 | 10 | – |
| CG2924 | DRSC18525 | 2 | – |
| CG2924 | DRSC28336 | 7 | – |
